Measurements reported in PubChem BioAssay AID504764 (Drosophila RNAi Screening Center, 2011)
Test: 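Genome-wide screen for regulators of Notch-driven gene expression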 (primary screen). System: Drosophila Kc167 cells. Knock-down reagent: long dsRNA against Drosophila genes. Timing: about 5 days (4 days dsRNA, then 24 h after transfection). Conditions: transfection of constitutively active membrane-tethered Notch lacking the extracellular domain, read 24 h later. Measurement: 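Light from a Notch-responsive E(spl)m3 luciferase reporter under active Notch, with control-promoter and no-Notch reporter wells to normalise; raw counts from paired wells a and b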. Direction: induced reporter light, run 1, well a and induced reporter light, run 1, well b: higher = more light from the Notch target reporter with active Notch; control promoter light, run 1, well a and control promoter light, run 1, well b: higher = more light from the viral control promoter (cell number, transfection, viability); uninduced reporter light, run 1, well a: higher = more light from the Notch target reporter without active Notch. Call rule: 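Hit if the duplicate-averaged log2 ratio of induced to control-promoter light gives a plate-wise z beyond ±2, or induced to uninduced beyond ±1.8; weak-control or discordant-duplicate wells dropped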. Meaning of the calls: active = modifier hit (raised or lowered Notch signal); inactive = not a hit.
The screen tested about 22,000 reagents; below is a random part of those with a known target gene and a result. Over the whole deposit, 403 (1.9%) were called active. 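Unnormalised raw counts per well; ratio z-scores behind the hit calls and whether each hit raises or lowers signal are not deposited.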 A plus sign joins genes that one reagent is predicted to hit. Not given: the amount of reagent.

Target gene	amplicon	induced reporter light, run 1, well a	induced reporter light, run 1, well b	control promoter light, run 1, well a	control promoter light, run 1, well b	uninduced reporter light, run 1, well a	outcome
frj	DRSC03250	1.51e5	1.68e5	1.69e5	1.66e5	11850	inactive
Cap-D3 + tomb	DRSC02347	1.88e5	1.55e5	2.39e5	1.59e5	12420	inactive
CG14151	DRSC10153	2.15e5	2.35e5	3.17e5	2.31e5	12200	inactive
Rchy1	DRSC02542	30925	30555	24295	23180	5700	inactive
ppk18	DRSC02216	1.14e5	1.51e5	70250	1.10e5	17855	inactive
Muc96D	DRSC13709	1.41e5	1.74e5	1.79e5	1.80e5	14345	inactive
CG9839	DRSC16574	1.09e5	1.03e5	76685	80300	9810	inactive
CG7600	DRSC09681	1.52e5	89550	70670	26125	10620	inactive
S-Lap2	DRSC10628	1.91e5	1.96e5	2.34e5	1.74e5	9978	inactive
ChAT	DRSC13314	75550	69785	1.14e5	1.00e5	9365	inactive
ChAT	DRSC16609	2.21e5	1.92e5	1.98e5	2.02e5	13620	inactive
DopEcR	DRSC08529	1.45e5	1.64e5	1.08e5	42540	13005	inactive
PNUTS	DRSC00638	1.52e5	1.88e5	1.45e5	1.71e5	12130	inactive
PNUTS	DRSC22136						inactive
osy	DRSC14903	1.65e5	2.15e5	2.39e5	2.39e5	13855	inactive
osy	DRSC15979	1.70e5	1.46e5	1.90e5	1.66e5	10890	inactive
osy	DRSC15981	1.77e5	2.26e5	2.58e5	2.70e5	14450	inactive

5 entries from above, arranged by “control promoter light, run 1, well a”, ascending:
Target gene	amplicon	induced reporter light, run 1, well a	induced reporter light, run 1, well b	control promoter light, run 1, well a	control promoter light, run 1, well b	uninduced reporter light, run 1, well a	outcome
DopEcR	DRSC08529	1.45e5	1.64e5	1.08e5	42540	13005	inactive
ChAT	DRSC13314	75550	69785	1.14e5	1.00e5	9365	inactive
PNUTS	DRSC00638	1.52e5	1.88e5	1.45e5	1.71e5	12130	inactive
ChAT	DRSC16609	2.21e5	1.92e5	1.98e5	2.02e5	13620	inactive
S-Lap2	DRSC10628	1.91e5	1.96e5	2.34e5	1.74e5	9978	inactive

Additional reagents follow.
Target gene	amplicon	induced reporter light, run 1, well a	induced reporter light, run 1, well b	control promoter light, run 1, well a	control promoter light, run 1, well b	uninduced reporter light, run 1, well a	outcome
Ir87a	DRSC14836	2.74e5	2.49e5	1.67e5	2.32e5	16320	inactive
Ect3	DRSC15462	97365	1.53e5	1.22e5	1.21e5	6382	inactive
CG5934	DRSC15922	1.28e5	1.35e5	1.72e5	1.77e5	11210	inactive
CG42741	DRSC04593	1.49e5	1.23e5	1.48e5	1.56e5	11130	inactive
Oatp26F	DRSC02149	1.37e5	1.28e5	1.82e5	1.30e5	7875	inactive
Oatp26F	DRSC02272	2.03e5	1.63e5	2.50e5	1.88e5	14538	inactive
Oatp26F	DRSC02695	2.08e5	1.60e5	2.46e5	2.09e5	12040	inactive
CG31917 + Tfb5	DRSC02362	1.80e5	1.51e5	2.79e5	2.38e5	11820	active
CG31917 + Tfb5	DRSC02363	1.38e5	1.32e5	1.77e5	1.59e5	6720	inactive
Ire1	DRSC15606	2.00e5	1.92e5	2.21e5	2.00e5	11840	inactive
CG9636	DRSC16529	93105	1.18e5	83725	87345	8730	inactive
hbs	DRSC07627	1.09e5	1.09e5	1.39e5	1.46e5	10205	inactive
Oct-TyrR	DRSC11883	1.07e5	1.38e5	1.23e5	1.25e5	8065	inactive
CG42496 + Ppcdc	DRSC03886	76075	80250	72840	81950	7770	inactive
ClpX	DRSC15592	1.07e5	1.16e5	92750	89385	6635	active
CG33255 (retired record) + hpRNA:CR32205 + hpRNA:CR32207	DRSC09617	2.69e5	2.08e5	2.48e5	3.11e5	16810	inactive
Dci	DRSC08360	1.97e5	1.66e5	3.01e5	3.32e5	13060	inactive
